## Results of single-concentration screens

Amino acid sequences for entries named in this document (tags omitted).
UniProt P9WFT3, whole entry: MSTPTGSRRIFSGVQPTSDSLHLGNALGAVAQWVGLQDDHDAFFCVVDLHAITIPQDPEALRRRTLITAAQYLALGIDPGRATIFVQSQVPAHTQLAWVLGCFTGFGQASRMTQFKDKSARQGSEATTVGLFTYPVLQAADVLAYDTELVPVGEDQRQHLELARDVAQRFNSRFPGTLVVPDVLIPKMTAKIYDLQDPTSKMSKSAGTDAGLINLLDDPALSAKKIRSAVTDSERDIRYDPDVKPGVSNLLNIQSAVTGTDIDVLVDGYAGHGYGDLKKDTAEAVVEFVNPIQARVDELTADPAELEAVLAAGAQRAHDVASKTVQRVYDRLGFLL
UniProt P9WPC5, whole entry: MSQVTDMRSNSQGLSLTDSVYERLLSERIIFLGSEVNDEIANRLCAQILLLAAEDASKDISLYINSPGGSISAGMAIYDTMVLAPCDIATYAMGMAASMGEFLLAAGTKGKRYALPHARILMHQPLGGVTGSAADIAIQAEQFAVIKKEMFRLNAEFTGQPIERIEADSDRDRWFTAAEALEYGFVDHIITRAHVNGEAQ
UniProt P9WPC3, whole entry partner: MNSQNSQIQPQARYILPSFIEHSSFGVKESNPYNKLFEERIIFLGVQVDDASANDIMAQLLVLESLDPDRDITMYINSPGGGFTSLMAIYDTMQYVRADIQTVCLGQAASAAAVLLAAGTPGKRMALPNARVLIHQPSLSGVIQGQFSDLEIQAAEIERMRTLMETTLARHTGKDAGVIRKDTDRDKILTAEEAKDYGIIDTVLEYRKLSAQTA

From ChEMBL document CHEMBL3988442, “University of Dundee, Small-Polar-MMV Screening Library” (2021).

The filed quantity is “Percent Effect” (%).
How 0% and 100% were set is not recorded. Most values in the screen are low, and negative values occur.
Compounds were drawn at random from those tested, without regard to their results.
A dash means the value is not listed here; it may have been measured.

A: 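Tryptophan-tRNA ligase, Mycobacterium tuberculosis (UniProt P9WFT3). Enzyme assay of tryptophanyl-tRNA synthetase; the read-out is not stated. Compounds at 10 µM. Higher most likely means stronger inhibition; the record gives no direction and few retests gave an IC50. Of about 65,000 compounds tested this way, about 64 (0.098%) reached 50% or more in at least one test.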
B: 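Protease assay of ClpP1P2, read by the AMC dye that it sets free. Target: ClpP1P2, Mycobacterium tuberculosis (UniProt P9WPC5 and UniProt P9WPC3). Tested at 50 µM. Direction is inferred from only a few compounds that gave an IC50; most scored high, so higher reads as stronger inhibition. Most other retested compounds had strongly negative values. Size under these conditions: about 69,000 compounds, about 10 of them at 50% or above in at least one test.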

Compound	A	B
CN(Cc1cccc2ncccc12)C(=O)CCC(F)(F)F	4.901%	8.228%
Cc1ncsc1CCN(C)Cc1ccc(Br)o1	1.961%	2.457%
O=C([C@H]1CC[C@@H]2[C@@H](CCN2Cc2nccs2)O1)N1CCCCO1	2.441%	-0.3354%
CCc1nn(C)c(Cl)c1CN(CC)Cc1cnn(CC)c1	2.449%	-0.6258%
CCN1CCOCC12CCN(C(=O)C1CCC1)CC2	2.156%	11.45%
O=C(c1cnccn1)N1CCOCC2(CCN(C3CCOCC3)C2)C1 (stereo not given)	-4.422%	7.095%
CCCc1nnsc1C(=O)NCC(O)c1ccc(SC)cc1 (stereo not given)	2.917%	-4.79%
CC1CCN(CCCNC(=O)C2CCCCC2)CC1	-3.816%	1.675%
CC(C(=O)NCc1ccnc(N(C)C)c1)n1cccn1 (stereo not given)	-5.461%	-14.78%
CC(=O)N1CC(Cc2nccc3ccn(C)c23)C1	-1.057%	17.08%
O=C(CCC(=O)N1CCC(Cc2ccc(CO)cc2)C1)c1ccccc1 (stereo not given)	-1.939%	5.25%
CC(C)(CNc1cn[nH]c(=O)c1Cl)c1ccc2c(c1)OCO2	0.6796%	3.757%
CCN(CC)C(=O)c1nc2c(s1)CCN(C(=O)Nc1ccccc1)CC2	-	14.06%
Cc1nc(C)n(C2CCCN(C(=O)CCCn3ccnc3)C2)n1 (stereo not given)	-3.752%	-1.464%
Cc1nc2n(n1)CC(NCc1ccccc1OCC(=O)N(C)C)CC2 (stereo not given)	-0.000009%	6.628%
CCN(CC1=CCN(C)CC1)C(=O)CCOC	2.422%	-0.3139%
COc1c(C(N)=O)cn(C)c1-c1nc2cc(NC(C)=O)ccc2n1C	-0.6303%	-14.06%
O=C(Cc1cccs1)N1CCC(O)(CN2CCc3ccccc3C2)C1 (stereo not given)	-	-19.59%
O=C([C@H]1COC[C@H]2CN(Cc3ccco3)C[C@H]21)N1CCCO1	-1.574%	3.571%
Cc1cccc(C2CCN(S(=O)(=O)c3cn(C)cn3)CC2)n1	-2.957%	0.856%
O=C(NCC1(O)CCOC1)NCC1(c2ccccc2Cl)CCC1 (stereo not given)	-0.6261%	-5.421%
O=C(NCCNc1ncccn1)N(Cc1ccc(F)cc1F)C1CC1	-0.07868%	-3.987%
O=C(c1noc2c1CCCC2)N1CCCC(c2nccs2)C1 (stereo not given)	1.48%	-15.61%
Cc1ccc(CC(=O)N2CC[C@@H]3NC(=O)CC[C@@H]32)cc1	3.735%	-1.265%
O=C(NC1CC1)[C@@H]1CCO[C@@H]2CCN(CC3CCC3)C[C@@H]21	1.063%	10.39%
CC1COCCN1Cc1nc(-c2ccc(F)cc2)no1 (stereo not given)	-7.456%	6.992%
CCn1cc(C(=O)NCCc2nc(-c3ccc(C)cc3)n[nH]2)c(C)n1	-7.67%	-9.278%
Cc1cccc(N2CC3(CCN(C(=O)NC(C)C)C3)CC2=O)c1 (stereo not given)	-1.744%	5.356%
CN(C)CC(Nc1nc(N)nc2c1CCNCC2)c1ccccc1 (stereo not given)	5.438%	-4.968%
Cc1noc(Cl)c1CCC(=O)N1CCC(CC(N)=O)CC1	-1.657%	0.1969%
CCC(C)C(=O)NCc1cc(Br)c(OC)c(OC)c1 (stereo not given)	-0.6255%	1.127%
COC(=O)C1C=CCN1C(=O)c1cc(COc2ccccc2)[nH]n1 (stereo not given)	-7.831%	10.22%
Cn1cc(C(C)(O)CNc2ccc(C(F)(F)F)cn2)cn1 (stereo not given)	-3.445%	3.765%
CCCc1n[nH]c(C2CN(Cc3nnc(C4CC4)o3)CCO2)n1 (stereo not given)	1.652%	-2.328%
CCc1nnc2n1CCN(C(=O)c1cc3c(F)cccc3[nH]1)C2	1.363%	-8.556%
COc1ccc(C(C(=O)O)N2CCC(Cn3cccn3)CC2)cc1F (stereo not given)	-3.286%	0.01567%
CC(C)NC(=O)N1CCCCCC1C1CCN(c2ncccn2)CC1 (stereo not given)	0.9031%	10.63%
Cc1ccc(C(=O)N2C[C@@H](OCc3cccnc3)[C@H]3OCCC[C@@H]32)o1	-4.104%	-6.587%
CC(=O)c1ccccc1NC(=O)CCN1CCSCC1	-0.9828%	-0.5468%
Cc1cc(I)cnc1NC(=O)C(C)(C)C	5.062%	0.0547%
CS(=O)(=O)NC(=O)c1cnc2c(cnn2C2CCCC2)c1	-1.715%	3.956%
COC(=O)[C@H]1CN(C(=O)NC(C)C)CCN1C(=O)CSC	-2.485%	5.972%
OCCOc1cc(F)ccc1NCc1cccc(F)c1F	-2.353%	-13.53%
Cc1nn(C)c(C)c1CC(=O)NCc1ccnc(N2CCOCC2)c1	-1.917%	-3.292%
O=S(=O)(NCC1(c2cccs2)CCCC1)c1cccnc1	-1.34%	2.656%
Cc1nn(Cc2ccc(C(=O)NC3CCS(=O)(=O)C3)cc2)c(C)c1Br (stereo not given)	2.581%	0.9586%
Cn1cnc2cc(C(=O)N3CCN(CCO)[C@@H]4CS(=O)(=O)C[C@@H]43)ccc21	-1.568%	4.162%
O=C(c1ccnnc1)N1C[C@H]2CN(Cc3cccc(F)c3)C(=O)[C@H]2C1	-0.8403%	9.589%
O=C(NCCO)C1CN(c2cncnc2)CCO1 (stereo not given)	-6.667%	8.325%
CN1CCCC1CNC(=O)CCCOc1ccc(F)cc1 (stereo not given)	-2.987%	1.099%
COc1c(CNCc2ccc(CN(C)C)cc2)c(C)nn1C	-5.166%	-2.644%
Cc1cc2cccc(NC(=O)N3CC[C@@H]4CC[C@H](C3)N4C)c2o1	-0.8972%	13.36%
Cc1nc2cc(F)cc(C(=O)N3CCN(CCO)CC3)c2nc1C	-1.652%	-0.7733%
Brc1csc(-c2noc(C3COCCO3)n2)c1 (stereo not given)	-1.444%	-3.372%
Cc1cc(CN2CC[C@H]3C[C@@H](C)O[C@@H]3C2)no1	-2.368%	1.964%
CCc1nc(NS(=O)(=O)c2ccc(C)cc2Cl)no1	2.131%	9.758%
CC(=O)N1CCO[C@@H]2CN(Cc3ccccc3F)C[C@@H]2C1	-	-6.159%
CN(CC(=O)NCC(C)(C)c1ccc2c(c1)OCO2)c1cnccn1	-2.618%	9.093%
Cc1nn(C)c2nc(NC3CCNCC3)sc12	3.366%	-0.9997%
Cc1cc(C)c2[nH]c(=O)c(CN3CCCC4(C3)CN(C)C(=O)O4)cc2c1 (stereo not given)	3.617%	-6.089%
CCN(CCSc1ccccc1)C(=O)c1cn([C@H]2CC[C@@H](N)CC2)nn1	1.019%	3.847%
CS(=O)(=O)c1ccc(NC(=O)CSc2ccc3c(c2)CCC3)cn1	-0.6353%	15.79%
CN(CCc1noc(C2CC2)n1)C(=O)CCc1cc2n(n1)CCCNC2	-6.093%	-0.1108%
CC(=O)NCc1nnn2c1CN(c1ncc(C)cn1)CCC2	-	-2.31%
OCC(CO)N1CCCC(Cc2ccnc(Nc3ccccn3)c2)C1 (stereo not given)	-7.602%	-11.2%
O=C(c1ccc[nH]1)N1CCCn2c(CN3CCCCC3)nnc2C1	-	-4.376%
Fc1cnc(N2CC[C@@H]3O[C@@H](COCc4cccnc4)CC[C@@H]32)nc1	-0.3607%	1.663%
NC(=O)CNC(=O)c1cc(Cn2cnc3ccccc32)[nH]n1	0.7401%	-3.91%
CN(Cc1ncc[nH]1)CC(c1cccs1)N1CCOCC1 (stereo not given)	-0.6803%	10.96%
O=C(c1cc(Br)ccc1-n1cnnn1)N1CCCC1	1.581%	-17.52%
CS(=O)(=O)N1CCCC(Cc2cncc(-c3ccccc3C(=O)O)n2)C1 (stereo not given)	-	5.412%

The first 9 entries again:

| Compound | A | B |
|---|---|---|
| `CN(Cc1cccc2ncccc12)C(=O)CCC(F)(F)F` | 4.901% | 8.228% |
| `Cc1ncsc1CCN(C)Cc1ccc(Br)o1` | 1.961% | 2.457% |
| `O=C([C@H]1CC[C@@H]2[C@@H](CCN2Cc2nccs2)O1)N1CCCCO1` | 2.441% | -0.3354% |
| `CCc1nn(C)c(Cl)c1CN(CC)Cc1cnn(CC)c1` | 2.449% | -0.6258% |
| `CCN1CCOCC12CCN(C(=O)C1CCC1)CC2` | 2.156% | 11.45% |
| `O=C(c1cnccn1)N1CCOCC2(CCN(C3CCOCC3)C2)C1` (stereo not given) | -4.422% | 7.095% |
| `CCCc1nnsc1C(=O)NCC(O)c1ccc(SC)cc1` (stereo not given) | 2.917% | -4.79% |
| `CC1CCN(CCCNC(=O)C2CCCCC2)CC1` | -3.816% | 1.675% |
| `CC(C(=O)NCc1ccnc(N(C)C)c1)n1cccn1` (stereo not given) | -5.461% | -14.78% |